Source: PubChem BioAssay AID1347426 (Functional Genomics Laboratory (NCATS/FGL), 2020)
The whole screen tested about 31,000 sequences, of which about 1,400 (4.5%) were called active.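 How the source made its calls: active means median seed-adjusted z-score above 1 or below -1; inactive means the rest.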 Some of the results follow.

Assay: Novel Modifiers of Survival Motor Neuron (SMN) Protein: Gene Identification via Genome-wide siRNA Screen;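 further: luminescence tracks full-length SMN protein made from the SMN2 reporter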
Details: HEK293T SMN2-luciferase reporter, siRNA knockdown, 72 h; actives lie on both sides
Summary of the method: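 HEK293T cells stably expressing an SMN2 splicing/cDNA-luciferase reporter were reverse-transfected with a druggable-genome siRNA library and read by luminescence at 72 hours; hits defined by MAD score above 1.0 or below -1.0.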

Row | Sequence | median seed-adjusted z-score
1 | CAGUAGUGUUGGUAGACCATT against HADH | active: 1.11
2 | GCACUGUCAGUUACACCAATT against DDR2 | inactive: 0.252
3 | GGCCUGUAAGGAGCACUCATT against CABP7 | inactive: -0.268
4 | CACCCAGUCUAGUAACGAUTT against DSCAM | inactive: -0.527
5 | CCCAGUCUGUGAAACCGAATT against JMJD3 | inactive: 0.871
6 | GAGAGGUACCAGACCAUGATT against POLM | active: -1.55
7 | GGCGAACCACCUGAACAAATT against TGM2 | inactive: 0.413
8 | GUCACUGACUUUUACCGCATT against EXTL3 | inactive: -0.353
9 | GUAGAACUCUAAUGAAGAATT against NEUROG1 | inactive: 0.485
10 | ACAGUUUACUCAGCACUAATT against KLF11 | inactive: 0.158
11 | GCACGUGCACUAUAACACUTT against NSUN6 | inactive: 0.428
12 | GGAGUUGCCUUUGACCACATT against ELAC2 | inactive: 0.016
13 | CUAUAGCUCUUUCAACAAUTT against RORB | inactive: 0.044
14 | GCACUAGUAUAUUCUAUUATT against RAP1A | inactive: 0.276
15 | CGUAGACAAUGAAACCGAATT against ATP13A3 | inactive: -0.619
16 | CGAGCUAGCUCUAACACCATT against RALGDS | inactive: -0.235
17 | CAAGUUCAAUGGUGUCUGATT against RELT | inactive: 0.349
18 | GCUCCUACAUCUACGAGAATT against CRIP2 | inactive: -0.226
19 | ACUAGCCUGUGGAGCAAGATT against HBE1 | inactive: -0.425
20 | GGUGAUCACCAAGAUCAAATT against ADCY3 | inactive: -0.294
21 | AAAUUUCCACUAGCGAAAATT against RASL11A | inactive: -0.294
22 | GACUACCUGUUGGACCUCATT against NDOR1 | inactive: 0.328
23 | GACUUGAACAGUGAACAAATT against RDH14 | inactive: 0.0287
24 | GGCUUAUGGUUUCAAUGCUTT against SRI | inactive: 0.994
25 | GCUCUGAAUUCAGUGUUUATT against HTR3E | inactive: -0.717
26 | GAGAAGAUCUGGAACUCAUTT against CRAT | active: -1.42
27 | CGGUUUCUGAAGACCCAGATT against ZNF358 | inactive: 0.359

Row | Sequence | median seed-adjusted z-score
28 | ACAUCGUGUGGAUCGCUGATT against ATP6V0D1 | inactive: -0.242
29 | GGUUCUAGCUGUCAACAUUTT against AP1G2 | inactive: 0.0657
30 | CACCUGCAGCUAUUCAUUUTT against ZNF548 | inactive: -0.508
31 | GGAGAGACGAUAUCGAGGATT against PBRM1 | inactive: -0.118
32 | UGAACCCUCUGUCUCCUUATT against TIMM23 | inactive: 0.899
33 | GCGCAUCUAUGAUGACGAUTT against UBA1 | active: 1.34
34 | GAACUUCACAAGUUCCUCATT against RAB31 | inactive: 0.41
35 | CCAAUUGAAUUGCUCAGUATT against BCAS2 | inactive: -0.639
36 | AGUCAUUGAUGGGAUGACATT against PPIC | inactive: 0.0824
37 | CCAUCAAGAUGUACCCUAUTT against TRIM49 | inactive: 0.0648
38 | GCUGUUAACUGAACCUCUATT against COQ3 | inactive: 0.426
39 | CUGUGAGAAUUGUUGCUCUTT against TRIP6 | active: 1.03
40 | CUACUUAAGUGUGAUAAUATT against OCLN | inactive: 0.232
41 | GGUGUGGUCCUGUAUGUCATT against TSSK3 | inactive: -0.381
42 | CUCUUCAACUUGUACAUGATT against RASA3 | inactive: 0.0056
43 | GACUAGCAGGGUUCACGAATT against MAGI1 | inactive: 0
44 | GUCUAUUGCUGCCCAAUGATT against PARD3B | inactive: 0.306
45 | CCCUAGAACUGGACAGCAATT against FKBP4 | inactive: 0.283
46 | GCGCAAUAAUGAACGGCAATT against GALNT14 | inactive: 0
47 | GACUCCCUGCUUUCAAUAATT against SALL2 | inactive: 0.504
48 | GCACUCCUGGGUCUUCAUATT against TYSND1 | inactive: -0.0298
49 | GGUAAAGCCGAACUCCUAATT against BAHCC1 | inactive: 0
50 | AGAUGGAAGCCUUUCUACATT against HYAL3 | inactive: 0
51 | CAAGCACAAUUUAUACCAATT against KLKB1 | inactive: -0.256
52 | CAGUUCAAGUGACCAUUGATT against CD300LF | inactive: -0.264
53 | CAACAAUAGGACGAAAUAUTT against MTCH2 | inactive: -0.168
54 | GAAUCCGGUUUGGAAUAUATT against POU3F2 | inactive: -0.179

Part of the list above in another layout.

| Row | Sequence | median seed-adjusted z-score |
| --- | --- | --- |
| 42 | CUCUUCAACUUGUACAUGATT against RASA3 | inactive: 0.0056 |
| 52 | CAGUUCAAGUGACCAUUGATT against CD300LF | inactive: -0.264 |
